Primary screen of a compound library

The values are deposited in ChEMBL (CHEMBL3988442, “University of Dundee, Small-Polar-MMV Screening Library” (2021)).

Mtb glucose medium: 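Whole-cell growth test on Mycobacterium tuberculosis, read after 3 days in glucose-containing 7H9 medium; the read-out is not stated. Concentration: 500 µM. The record gives no direction; compounds that gave an IC50 in retests scored well above the rest, so higher reads as more growth inhibition. About 18,000 compounds were tested under these conditions; 7.9% (about 1,400) showed 50% or more at least once.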
Mtb cholesterol medium: 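Growth of Mycobacterium tuberculosis over 4 days (cholesterol / DPPC medium with tyloxapol); the read-out is not stated. Compounds at 500 µM. Higher reads as more growth inhibition (inferred: compounds with an IC50 in retests scored well above the rest). Of about 18,000 compounds tested this way, about 900 (5%) reached 50% or more in at least one test.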

Results are given as percent effect.
The record does not define 0% and 100%; most values in the screen are far below 50% and negative numbers occur (in some assays of this library far below -100).
The compounds are a random part of those screened.

compound	Mtb glucose medium	Mtb cholesterol medium
O=S(=O)(Cc1nc(C2CC2)n[nH]1)c1ccc(Br)cn1	18.4	-7.936
CN(C)C(=O)CCN1CCC(N)CC1	-0.6514	-5.816
NC1CCN(C(=O)Nc2ccccc2)C1 (centres undefined)	-7.854	7.098
CN1C(=O)c2ccc(C(=O)NC3CC3)cc2C1=O	-11.59	61.33
NC(CCO)c1ccc(F)cc1 (centres undefined)	8.893	14.41
O[C@@H]1[C@H](O)CNC[C@@H]1O	-1.867	-28.07
CCCC(C)(O)CNC(=O)c1cccc2c1OCCO2 (centres undefined)	44.19	19.46
CC1CCN(C(=O)c2ccc(-n3ccnc3)nc2)CC1	32.26	7.676
NCCc1ccc(CN2CCN3CCCCC3C2)cc1 (centres undefined)	9.383	5.613
CC(C)[C@H](N)C(=O)N1CCN(C(=O)N(C)C)CC1	8.264	-2.392
CS(=O)(=O)CC1(CNCc2cccs2)CC1	7.783	4.199
Cc1ncn(CC(=O)N2CCCC(O)(CO)CC2)c1C (centres undefined)	-2.178	1.785
CSCC(=O)N1CCN(C)Cc2ccccc21	8.116	5.516
CS(=O)(=O)NC1CCCNC1 (centres undefined)	-5.879	-0.2427
O=C(Cn1cc(Br)cn1)Nc1ccc2c(c1)OCCO2	53.5	54.5
CC(C)NC(=O)COC(=O)c1cccc2cn[nH]c12	13.92	0.9364
NCC(O)c1c(Cl)cccc1Cl (centres undefined)	10.61	-8.077
Cc1ccc(C(=O)N2CCN(C(C)C(N)=O)CC2)s1 (centres undefined)	5.332	-5.466
CCOC(=O)N1CCCC(C(=O)NC(C)C)C1 (centres undefined)	-1.596	-4.995
CCc1ccc(S(=O)(=O)NC(CO)C(=O)OC)cc1 (centres undefined)	17.7	10.89
NCCC1CSc2ccccc2O1 (centres undefined)	61.26	42.52
O=C(Cn1cnc2sccc2c1=O)NCC(F)(F)F	6.804	-4.524
CC(=O)N(C)CC(=O)NCc1nnc2ccccn12	-5.451	-4.099
CC(C)C(N)CN(C)C (centres undefined)	8.703	2.448
CSCC[C@H]1NC(=O)c2ccccc2NC1=O	17.93	-16.68
CN1CCN(C(=O)CN(CCC#N)CC2CCC2)CC1	2.589	-3.23
CC(=O)N1CCC(NC(=O)c2ccc(Br)o2)CC1	2.466	-1.263
Cn1cc(C#N)cc1C(=O)NCC(=O)N1CCNCC1	-2.112	-1
CC(C)(CO)NS(=O)(=O)c1ccc(Cl)c(C(N)=O)c1	5.89	49.19
Cn1nnc(CNC(=O)C2CSc3ccccc3O2)n1 (centres undefined)	42.37	27.28
CN1CCCN(C(=O)Cc2c(F)cccc2Cl)CC1	26.88	38.24
CCN1CCN(C(=O)c2cccc3cccnc23)CC1	-7.966	-11.08
O=C(Cn1nnc2ccccc21)N1CCSCC1	3.774	-5.516
CCNC(=O)C(C)OC(=O)c1[nH]c(C)c(C(C)=O)c1C (centres undefined)	-0.6634	-11.67
CC(O)(CN)C(F)(F)F (centres undefined)	-3.785	-5.313
CNC1CCN(c2ccccn2)CC1	15.16	15.1
CC(C)C(=O)NC1CCOc2ccccc21 (centres undefined)	44.4	26.71
OC[C@@H]1CCCN1Cc1cccc(F)c1F	58.3	36.82
CN(C)[C@@H]1C[C@@H](CO)N(C(=O)c2cn3ccsc3n2)C1	7.787	7.636
Cc1ccc(NC(=O)CN(C)C)cc1C(=O)NC(C)C	4.041	4.061
CCn1cc(CN2CCCN(C(=O)CSC)CC2)cn1	12.6	26.97
COC(=O)c1cnc(C(C)=O)s1	-6.978	-12.64
Cc1ccc2c(N)noc2n1	24.29	16.23
CN(CCCNC(=O)[C@H]1CC[C@@H](N)C1)c1ccccc1	41.05	8.744
CSC(C)C(=O)N(C)Cc1ccccn1 (centres undefined)	8.15	0.09923
C1COC2(CCN(Cc3nnnn3C3CC3)CC2)O1	6.687	8.293
Cc1nnc(CNC(=O)NCC(F)(F)F)n1C1CC1	46.66	11.45
CN1CCN(C(=O)c2cc(-c3cccs3)on2)CC1	59.55	38.76
CCn1c(CN2CCCC2)nnc1[C@H]1C[C@H](N)C1	15.29	5.785
O=C(c1ccccn1)N1CCN(C(=O)C2CC2)CC1	5.735	1.571
CCOc1ncccc1CN(C)S(=O)(=O)C1CC1	37.39	18.39
CC(C)CCN1CCC(CNS(C)(=O)=O)CC1	21.96	32.98
CC(Sc1ccccc1)C(=O)NCC(=O)N1CCCC1 (centres undefined)	9.433	-6.37
CN(C1CCCCC1)S(=O)(=O)N1CCNCC1	10.28	3.852
CC1(CN)CCC(=O)N1 (centres undefined)	-1.664	-3.363
Cc1ccc(CNCCOc2ccccn2)o1	50.76	57.79
CNCc1nncn1-c1ccccc1Cl	10.72	8.49
OCC1CSc2ccccc2O1 (centres undefined)	19.05	7.083

6 of the entries, repeated:

compound	Mtb glucose medium	Mtb cholesterol medium
O=S(=O)(Cc1nc(C2CC2)n[nH]1)c1ccc(Br)cn1	18.4	-7.936
CC(C)C(=O)NC1CCOc2ccccc21 (centres undefined)	44.4	26.71
CN1CCN(C(=O)CN(CCC#N)CC2CCC2)CC1	2.589	-3.23
Cc1ccc(CNCCOc2ccccn2)o1	50.76	57.79
CC(C)(CO)NS(=O)(=O)c1ccc(Cl)c(C(N)=O)c1	5.89	49.19
NC(CCO)c1ccc(F)cc1 (centres undefined)	8.893	14.41